Results reported in article PMC11257983 (2024).
Results are given in words; binding and its absence hold for the method and conditions named. In cells and extracts the contact can be indirect. Some entries that bind do so weakly or less than the wild type. Sequences can lack the tags named with a protein.

Amino acid sequences for entries named in this document (tags omitted).
UniProt Q24324: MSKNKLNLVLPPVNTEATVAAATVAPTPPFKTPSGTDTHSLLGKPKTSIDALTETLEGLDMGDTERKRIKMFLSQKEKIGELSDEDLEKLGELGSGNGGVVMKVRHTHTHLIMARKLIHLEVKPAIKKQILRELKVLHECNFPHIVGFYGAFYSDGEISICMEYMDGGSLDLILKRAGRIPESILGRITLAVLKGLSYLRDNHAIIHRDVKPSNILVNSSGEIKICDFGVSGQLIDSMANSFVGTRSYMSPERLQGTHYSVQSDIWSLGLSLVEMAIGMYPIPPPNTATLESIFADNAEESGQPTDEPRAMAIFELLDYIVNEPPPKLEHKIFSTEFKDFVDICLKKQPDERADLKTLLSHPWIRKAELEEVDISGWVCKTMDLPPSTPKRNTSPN

Key:
[1] = biological target: T1, GST-CNK^2–384 (Drosophila) (UniProt Q7KNQ9); experiment: pull-down; GST-CNK fragments as bait; S2 cells co-transfected with Pyo-HYP, V5-KSR and Myc-MEK alone, in pairs or all three; total lysates in Triton lysis buffer (50 mM Tris pH 7.5, 150 mM NaCl, 0.2% Triton X-100), overnight at 4 °C; immunoblot
T1 sequence: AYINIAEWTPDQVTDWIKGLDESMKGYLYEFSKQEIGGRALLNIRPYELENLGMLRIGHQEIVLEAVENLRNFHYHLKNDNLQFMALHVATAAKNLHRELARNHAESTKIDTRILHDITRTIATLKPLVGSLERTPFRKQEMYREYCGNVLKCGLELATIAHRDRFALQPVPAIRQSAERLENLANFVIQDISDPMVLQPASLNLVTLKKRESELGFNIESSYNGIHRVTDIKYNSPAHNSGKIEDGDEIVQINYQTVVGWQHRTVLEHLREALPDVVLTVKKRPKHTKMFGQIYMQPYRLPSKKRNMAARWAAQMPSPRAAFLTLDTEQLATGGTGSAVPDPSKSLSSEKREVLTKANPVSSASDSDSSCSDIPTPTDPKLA

[2] = biological target: T2, GST-CNK^2–549 (Drosophila) (UniProt Q7KNQ9); experiment: as above
T2 sequence: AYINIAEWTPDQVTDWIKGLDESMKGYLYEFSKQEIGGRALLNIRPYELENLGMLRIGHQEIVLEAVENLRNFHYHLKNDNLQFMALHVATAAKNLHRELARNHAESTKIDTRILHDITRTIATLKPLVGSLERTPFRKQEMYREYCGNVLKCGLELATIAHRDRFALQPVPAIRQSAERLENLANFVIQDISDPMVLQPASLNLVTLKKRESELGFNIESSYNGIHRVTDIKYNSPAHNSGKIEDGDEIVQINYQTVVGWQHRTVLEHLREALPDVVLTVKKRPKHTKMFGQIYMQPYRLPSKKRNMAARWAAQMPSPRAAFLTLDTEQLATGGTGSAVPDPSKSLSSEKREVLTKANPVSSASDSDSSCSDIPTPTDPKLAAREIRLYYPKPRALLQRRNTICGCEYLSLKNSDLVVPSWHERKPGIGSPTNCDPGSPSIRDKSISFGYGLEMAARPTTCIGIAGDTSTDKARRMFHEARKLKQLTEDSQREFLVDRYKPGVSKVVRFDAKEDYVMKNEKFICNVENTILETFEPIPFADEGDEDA

[3] = biological target: T3, V5-KSR K903D (Drosophila) (UniProt Q24171); experiment: co-IP; anti-V5 immunoprecipitation of V5-KSR from S2 total lysates, protein A/G agarose, overnight at 4 °C; MEK blotted; without or with co-expressed CNK^2–549–HYP
T3 sequence: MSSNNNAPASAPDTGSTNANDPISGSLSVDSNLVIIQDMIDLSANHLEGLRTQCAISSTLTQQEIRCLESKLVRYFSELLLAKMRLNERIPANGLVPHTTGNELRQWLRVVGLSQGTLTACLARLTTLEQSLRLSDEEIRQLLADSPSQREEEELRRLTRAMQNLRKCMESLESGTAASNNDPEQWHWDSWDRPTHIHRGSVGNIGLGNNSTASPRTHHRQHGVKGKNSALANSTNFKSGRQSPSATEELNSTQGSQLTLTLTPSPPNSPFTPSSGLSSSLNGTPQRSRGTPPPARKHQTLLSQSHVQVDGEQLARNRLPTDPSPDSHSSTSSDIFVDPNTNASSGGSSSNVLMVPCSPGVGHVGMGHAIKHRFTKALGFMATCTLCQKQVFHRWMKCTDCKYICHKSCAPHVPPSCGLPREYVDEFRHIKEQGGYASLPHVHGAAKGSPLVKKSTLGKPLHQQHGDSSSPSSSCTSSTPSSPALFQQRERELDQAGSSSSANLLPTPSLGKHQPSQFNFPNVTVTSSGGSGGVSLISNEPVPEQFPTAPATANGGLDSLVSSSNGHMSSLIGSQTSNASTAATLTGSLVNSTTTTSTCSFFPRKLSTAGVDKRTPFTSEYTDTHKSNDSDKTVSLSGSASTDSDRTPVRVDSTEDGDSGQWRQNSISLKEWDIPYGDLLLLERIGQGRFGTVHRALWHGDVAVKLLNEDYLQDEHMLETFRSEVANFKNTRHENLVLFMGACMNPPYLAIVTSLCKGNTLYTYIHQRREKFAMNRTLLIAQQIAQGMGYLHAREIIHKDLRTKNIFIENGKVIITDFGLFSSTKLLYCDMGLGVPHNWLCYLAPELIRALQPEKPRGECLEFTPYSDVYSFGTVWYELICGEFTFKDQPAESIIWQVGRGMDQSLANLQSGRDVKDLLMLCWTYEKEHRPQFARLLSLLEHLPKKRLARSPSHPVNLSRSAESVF

Measured: binding

Myc-MEK (from UniProt Q24324 1-396)
binds: all assays above
